Reference: the supplement of paper PMC8728848
The other results are listed elsewhere or left out.

Experiments:
Test in all cases: glycan array binding signal (z-score within array); higher = stronger binding
Conditions in all cases: glycan notation: IUPAC condensed, linker removed
[1] = biological target: GlcNAc(a1-6)Gal(b1-4)GlcNAc
How it was run: (§1)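 Negative Z-scores can be read as non-binding. The Z-score is calculated within each array and then averaged across arrays of one protein sequence at different concentrations or buffers and across linkers. Arrays, 3228 in all, were curated from the Consortium for Functional Glycomics database and kept only where the protein sequence was available.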

[2] = biological target: GlcNAc(b1-2)Gal(b1-3)GalNAc
How it was run: as §1

[3] = biological target: GlcNAc(b1-2)Man(a1-3)[GlcNAc(b1-2)Man(a1-6)]Man(b1-4)GlcNAc(b1-4)GlcNAc
How it was run: as §1

[4] = biological target: GlcNAc(b1-2)Man(a1-3)[GlcNAc(b1-2)Man(a1-6)]Man(b1-4)GlcNAc(b1-4)[Fuc(a1-6)]GlcNAc
How it was run: as §1

[5] = biological target: GlcNAc(b1-2)Man(a1-3)[GlcNAc(b1-4)][GlcNAc(b1-2)Man(a1-6)]Man(b1-4)GlcNAc(b1-4)GlcNAc
How it was run: as §1

[6] = biological target: GlcNAc(b1-2)Man(a1-3)[GlcNAc(b1-4)][GlcNAc(b1-2)Man(a1-6)]Man(b1-4)GlcNAc(b1-4)[Fuc(a1-6)]GlcNAc
How it was run: as §1

[7] = biological target: GlcNAc(b1-2)[GlcNAc(b1-4)]Man(a1-3)[GlcNAc(b1-2)Man(a1-6)]Man(b1-4)GlcNAc(b1-4)GlcNAc
How it was run: as §1

[8] = biological target: GlcNAc(b1-2)[GlcNAc(b1-4)]Man(a1-3)[GlcNAc(b1-4)][GlcNAc(b1-2)Man(a1-6)]Man(b1-4)GlcNAc(b1-4)GlcNAc
How it was run: as §1

[9] = biological target: GlcNAc(b1-2)[GlcNAc(b1-4)]Man(a1-3)[GlcNAc(b1-4)][GlcNAc(b1-2)[GlcNAc(b1-6)]Man(a1-6)]Man(b1-4)GlcNAc(b1-4)GlcNAc
How it was run: as §1

[10] = biological target: GlcNAc(b1-2)[GlcNAc(b1-4)]Man(a1-3)[GlcNAc(b1-4)][GlcNAc(b1-2)[GlcNAc(b1-6)]Man(a1-6)]Man(b1-4)GlcNAc(b1-4)[Fuc(a1-6)]GlcNAc
How it was run: as §1

[11] = biological target: GlcNAc(b1-2)[GlcNAc(b1-6)]Man(a1-6)[GlcNAc(b1-2)Man(a1-3)]Man(b1-4)GlcNAc(b1-4)GlcNAc
How it was run: as §1

[12] = biological target: GlcNAc(b1-2)[GlcNAc(b1-6)]Man(a1-6)[GlcNAc(b1-2)Man(a1-3)]Man(b1-4)GlcNAc(b1-4)[Fuc(a1-6)]GlcNAc
How it was run: as §1

[13] = biological target: GlcNAc(b1-2)[GlcNAc(b1-6)]Man(a1-6)[GlcNAc(b1-4)][GlcNAc(b1-2)Man(a1-3)]Man(b1-4)GlcNAc(b1-4)GlcNAc
How it was run: as §1

[14] = biological target: GlcNAc(b1-3)Fuc
How it was run: as §1

[15] = biological target: GlcNAc(b1-3)Gal
How it was run: as §1

[16] = biological target: GlcNAc(b1-3)Gal(b1-3)GalNAc
How it was run: as §1

[17] = biological target: GlcNAc(b1-3)Gal(b1-4)Glc
How it was run: as §1

[18] = biological target: GlcNAc(b1-3)Gal(b1-4)GlcNAc
How it was run: as §1

[19] = biological target: GlcNAc(b1-3)Gal(b1-4)GlcNAc(b1-2)Man(a1-3)[GlcNAc(b1-3)Gal(b1-4)GlcNAc(b1-2)Man(a1-6)]Man(b1-4)GlcNAc(b1-4)GlcNAc
How it was run: as §1

[20] = biological target: GlcNAc(b1-3)Gal(b1-4)GlcNAc(b1-2)Man(a1-3)[GlcNAc(b1-3)Gal(b1-4)GlcNAc(b1-2)Man(a1-6)]Man(b1-4)GlcNAc(b1-4)[Fuc(a1-6)]GlcNAc
How it was run: as §1

[21] = biological target: GlcNAc(b1-3)Gal(b1-4)GlcNAc(b1-2)[GlcNAc(b1-3)Gal(b1-4)GlcNAc(b1-6)]Man(a1-6)[GlcNAc(b1-3)Gal(b1-4)GlcNAc(b1-2)Man(a1-3)]Man(b1-4)GlcNAc(b1-4)GlcNAc
How it was run: as §1

[22] = biological target: GlcNAc(b1-3)Gal(b1-4)GlcNAc(b1-3)Gal(b1-4)GlcNAc
How it was run: as §1

[23] = biological target: GlcNAc(b1-3)Gal(b1-4)GlcNAc(b1-3)Gal(b1-4)GlcNAc(b1-2)Man(a1-3)[GlcNAc(b1-3)Gal(b1-4)GlcNAc(b1-3)Gal(b1-4)GlcNAc(b1-2)Man(a1-6)]Man(b1-4)GlcNAc(b1-4)GlcNAc
How it was run: as §1

[24] = biological target: GlcNAc(b1-3)Gal(b1-4)GlcNAc(b1-3)Gal(b1-4)GlcNAc(b1-2)Man(a1-3)[GlcNAc(b1-3)Gal(b1-4)GlcNAc(b1-3)Gal(b1-4)GlcNAc(b1-2)Man(a1-6)]Man(b1-4)GlcNAc(b1-4)[Fuc(a1-6)]GlcNAc
How it was run: as §1

[25] = biological target: GlcNAc(b1-3)Gal(b1-4)GlcNAc(b1-3)Gal(b1-4)GlcNAc(b1-2)[GlcNAc(b1-3)Gal(b1-4)GlcNAc(b1-3)Gal(b1-4)GlcNAc(b1-6)]Man(a1-6)[GlcNAc(b1-3)Gal(b1-4)GlcNAc(b1-3)Gal(b1-4)GlcNAc(b1-2)Man(a1-3)]Man(b1-4)GlcNAc(b1-4)[Fuc(a1-6)]GlcNAc
How it was run: as §1

[26] = biological target: GlcNAc(b1-3)Gal(b1-4)GlcNAc(b1-3)Gal(b1-4)GlcNAc(b1-3)Gal(b1-4)GlcNAc(b1-2)Man(a1-3)[GlcNAc(b1-3)Gal(b1-4)GlcNAc(b1-3)Gal(b1-4)GlcNAc(b1-3)Gal(b1-4)GlcNAc(b1-2)Man(a1-6)]Man(b1-4)GlcNAc(b1-4)GlcNAc
How it was run: as §1

[27] = biological target: GlcNAc(b1-3)Gal(b1-4)GlcNAc(b1-3)Gal(b1-4)GlcNAc(b1-3)Gal(b1-4)GlcNAc(b1-2)Man(a1-3)[GlcNAc(b1-3)Gal(b1-4)GlcNAc(b1-3)Gal(b1-4)GlcNAc(b1-3)Gal(b1-4)GlcNAc(b1-2)Man(a1-6)]Man(b1-4)GlcNAc(b1-4)[Fuc(a1-6)]GlcNAc
How it was run: as §1

[28] = biological target: GlcNAc(b1-3)Gal(b1-4)GlcNAc(b1-3)Gal(b1-4)GlcNAc(b1-3)Gal(b1-4)GlcNAc(b1-2)[GlcNAc(b1-3)Gal(b1-4)GlcNAc(b1-3)Gal(b1-4)GlcNAc(b1-3)Gal(b1-4)GlcNAc(b1-6)]Man(a1-6)[GlcNAc(b1-3)Gal(b1-4)GlcNAc(b1-3)Gal(b1-4)GlcNAc(b1-3)Gal(b1-4)GlcNAc(b1-2)Man(a1-3)]Man(b1-4)GlcNAc(b1-4)[Fuc(a1-6)]GlcNAc
How it was run: as §1

[29] = biological target: GlcNAc(b1-3)Gal(b1-4)GlcNAc(b1-3)Gal(b1-4)GlcNAc(b1-3)Gal(b1-4)GlcNAc(b1-3)Gal(b1-4)GlcNAc(b1-2)Man(a1-3)[GlcNAc(b1-3)Gal(b1-4)GlcNAc(b1-3)Gal(b1-4)GlcNAc(b1-3)Gal(b1-4)GlcNAc(b1-3)Gal(b1-4)GlcNAc(b1-2)Man(a1-6)]Man(b1-4)GlcNAc(b1-4)GlcNAc
How it was run: as §1

[30] = biological target: GlcNAc(b1-3)Gal(b1-4)GlcNAc(b1-3)Gal(b1-4)GlcNAc(b1-3)Gal(b1-4)GlcNAc(b1-3)Gal(b1-4)GlcNAc(b1-2)Man(a1-3)[GlcNAc(b1-3)Gal(b1-4)GlcNAc(b1-3)Gal(b1-4)GlcNAc(b1-3)Gal(b1-4)GlcNAc(b1-3)Gal(b1-4)GlcNAc(b1-2)Man(a1-6)]Man(b1-4)GlcNAc(b1-4)[Fuc(a1-6)]GlcNAc
How it was run: as §1

[31] = biological target: GlcNAc(b1-3)Gal(b1-4)GlcNAc(b1-3)Gal(b1-4)GlcNAc(b1-3)Gal(b1-4)GlcNAc(b1-3)Gal(b1-4)GlcNAc(b1-2)[GlcNAc(b1-3)Gal(b1-4)GlcNAc(b1-3)Gal(b1-4)GlcNAc(b1-3)Gal(b1-4)GlcNAc(b1-3)Gal(b1-4)GlcNAc(b1-6)]Man(a1-6)[GlcNAc(b1-3)Gal(b1-4)GlcNAc(b1-3)Gal(b1-4)GlcNAc(b1-3)Gal(b1-4)GlcNAc(b1-3)Gal(b1-4)GlcNAc(b1-2)Man(a1-3)]Man(b1-4)GlcNAc(b1-4)[Fuc(a1-6)]GlcNAc
How it was run: as §1

[32] = biological target: GlcNAc(b1-3)Gal(b1-4)GlcNAc(b1-3)Gal(b1-4)GlcNAc(b1-3)GalNAc
How it was run: as §1

[33] = biological target: GlcNAc(b1-3)Gal(b1-4)GlcNAc(b1-3)GalNAc
How it was run: as §1

[34] = biological target: GlcNAc(b1-3)Gal(b1-4)GlcNAc(b1-3)[GlcNAc(b1-3)Gal(b1-4)GlcNAc(b1-3)]GalNAc
How it was run: as §1

[35] = biological target: GlcNAc(b1-3)Gal(b1-4)GlcNAc(b1-6)[Gal(b1-3)]GalNAc
How it was run: as §1

[36] = biological target: GlcNAc(b1-3)Gal(b1-4)GlcNAc(b1-6)[GlcNAc(b1-3)Gal(b1-3)]GalNAc
How it was run: as §1

[37] = biological target: GlcNAc(b1-3)Gal(b1-4)GlcNAc(b1-6)[GlcNAc(b1-3)]Gal(b1-4)GlcNAc
How it was run: as §1

[38] = biological target: GlcNAc(b1-3)GalNAc
How it was run: as §1

[39] = biological target: GlcNAc(b1-3)Man
How it was run: as §1

[40] = biological target: GlcNAc(b1-3)[GlcNAc(b1-4)][GlcNAc(b1-6)]GlcNAc
How it was run: as §1

[41] = biological target: GlcNAc(b1-3)[GlcNAc(b1-6)]Gal(b1-4)GlcNAc
How it was run: as §1

[42] = biological target: GlcNAc(b1-3)[GlcNAc(b1-6)]GalNAc
How it was run: as §1

[43] = biological target: GlcNAc(b1-4)Gal(b1-4)GlcNAc
How it was run: as §1

[44] = biological target: GlcNAc(b1-4)GlcNAc
How it was run: as §1

[45] = biological target: GlcNAc(b1-4)GlcNAc(b1-4)GlcNAc
How it was run: as §1

B1: cFel (Cyprinus carpio), P68512 (protein)
chain: LDCTVIDGNLKQIDAGSGSVVGVNNLNETFVLIDNVFTKISGSLKHFSVGPAGQLGVNTANNIFKYQSGGFVQLAGLLKQVDAGGDQIIAGVNMYDDIYCLNMDANNKWPSSNTPWVQINGKLKYYSCGPYSCWGVNSNDQIFIMKDVSSNVCSGSGSFINIPGLLSMIEVATDGSVFGVNSQGNLYQRTGVTRSKPDGTDWISMVACPNGHKHVSFDLGVLWLVCVDGSIRKCILTD
glycan array binding signal (z-score) [1]: -1.17 | glycan array binding signal (z-score) [2]: -0.824 | glycan array binding signal (z-score) [3]: -0.445 | glycan array binding signal (z-score) [4]: 1.58 | glycan array binding signal (z-score) [5]: 1.34 | glycan array binding signal (z-score) [6]: 0.224 | glycan array binding signal (z-score) [7]: -0.869 | glycan array binding signal (z-score) [8]: -0.631 | glycan array binding signal (z-score) [9]: -0.197 | glycan array binding signal (z-score) [10]: -0.704 | glycan array binding signal (z-score) [11]: 0.788 | glycan array binding signal (z-score) [12]: -0.14 | glycan array binding signal (z-score) [13]: -0.817 | glycan array binding signal (z-score) [14]: 0.739 | glycan array binding signal (z-score) [15]: -0.231 | glycan array binding signal (z-score) [16]: 1.35 | glycan array binding signal (z-score) [17]: -0.98 | glycan array binding signal (z-score) [18]: -0.197 | glycan array binding signal (z-score) [19]: -0.579 | glycan array binding signal (z-score) [20]: -0.543 | glycan array binding signal (z-score) [21]: 0.381 | glycan array binding signal (z-score) [22]: -1.22 | glycan array binding signal (z-score) [23]: -0.105 | glycan array binding signal (z-score) [24]: -0.502 | glycan array binding signal (z-score) [25]: -0.253 | glycan array binding signal (z-score) [26]: 1.23 | glycan array binding signal (z-score) [27]: -0.724 | glycan array binding signal (z-score) [28]: -1.07 | glycan array binding signal (z-score) [29]: -0.732 | glycan array binding signal (z-score) [30]: 2.52 | glycan array binding signal (z-score) [31]: 0.968 | glycan array binding signal (z-score) [32]: 1.09 | glycan array binding signal (z-score) [33]: 1.45 | glycan array binding signal (z-score) [34]: -1.53 | glycan array binding signal (z-score) [35]: 1.15 | glycan array binding signal (z-score) [36]: -1.47 | glycan array binding signal (z-score) [37]: 0.717 | glycan array binding signal (z-score) [38]: 0.09 | glycan array binding signal (z-score) [39]: 3.22 | glycan array binding signal (z-score) [40]: -0.332 | glycan array binding signal (z-score) [41]: -0.455 | glycan array binding signal (z-score) [42]: 0.368 | glycan array binding signal (z-score) [43]: -0.469 | glycan array binding signal (z-score) [44]: -0.102 | glycan array binding signal (z-score) [45]: -1.42
